# According to the supplement of paper PMC9744312:
# Counter-ions that a name gives are not always drawn. This is one part of the list. The data scatter; read single values as rough.
# Tested on: Peyronie's disease tunica albuginea primary fibroblasts
# Assay: inhibition of TGF-beta1-induced alpha-SMA expression (myofibroblast transformation), relative to TGF-beta1-only and untreated controls; higher = stronger inhibition of myofibroblast transformation
# Conditions: 10 µM; TGF-beta1 10 ng/mL; 72 h
row,SMILES,inhibition of TGF-beta1-induced alpha-SMA expression [%]
1,CN(C)CCCN1c2ccccc2Sc2ccccc21 [Promazine hydrochloride],40.1
2,CC(=O)O[C@]1(C(C)=O)CC[C@H]2[C@@H]3C[C@H](C)C4=CC(=O)C=C[C@]4(C)[C@@]3(F)[C@@H](O)C[C@@]21C [Fluorometholone Acetate],10.5
3,O=C[C@H](O)[C@@H](O)[C@H](O)CO [Xylose],-15.1
4,CC(C)(C(=O)O)c1ccc(C(O)CCCN2CCC(C(O)(c3ccccc3)c3ccccc3)CC2)cc1 (configuration not stated) [Fexofenadine HCl],-1.55
5,Cc1c(C)c2c(c(C)c1O)CCC(C)(COc1ccc(CC3SC(=O)NC3=O)cc1)O2 (configuration not stated) [Troglitazone (CS-045)],-24
6,Cc1ccccc1-c1cc(N2CCN(C)CC2)ncc1N(C)C(=O)C(C)(C)c1cc(C(F)(F)F)cc(C(F)(F)F)c1 [Netupitant],1.86
7,C[N+]1(C)[C@@H]2CC[C@H]1C[C@@H](OC(=O)C(O)c1ccccc1)C2 (some centres not stated) [Homatropine Methylbromide],76.2
8,COC(c1ccccc1)(c1ccccc1)[C@H](Oc1nc(C)cc(C)n1)C(=O)O [Ambrisentan],23.5
9,COC(=O)C1=C(C)NC(C)=C(C(=O)OCCN2CCN(C(c3ccccc3)c3ccccc3)CC2)C1c1cccc([N+](=O)[O-])c1 (configuration not stated) [Manidipine 2HCl],2.14
10,COC(=O)C1=C(C)NC(C)=C(C(=O)OCCN2CCN(C(c3ccccc3)c3ccccc3)CC2)C1c1cccc([N+](=O)[O-])c1 (configuration not stated) [Manidipine],32.2
11,CC(=O)Nc1ccccc1 [Acetanilide],5.95
12,C[N+]1(C)[C@@H]2C[C@@H](OC(=O)C(O)(c3cccs3)c3cccs3)C[C@H]1[C@@H]1O[C@@H]12 [Tiotropium Bromide hydrate],9.12
13,CC(C(=O)O)c1ccc2c(c1)Cc1cccnc1O2 (configuration not stated) [Pranoprofen],22.7
14,C[C@H]1COc2c(C3(N)CC3)c(F)cc3c(=O)c(C(=O)O)cn1c23 [Pazufloxacin mesylate],-14.9
15,CC(C)(C)C(=O)Oc1ccc(S(=O)(=O)Nc2ccccc2C(=O)NCC(=O)O)cc1 [Sivelestat (ONO-5046)],28.6
16,CC(C)(C)C(=O)Oc1ccc(S(=O)(=O)Nc2ccccc2C(=O)NCC(=O)O)cc1 [Sivelestat sodium tetrahydrate],20.3
17,COC(=O)Nc1nc2cc(C(=O)c3ccccc3)ccc2[nH]1 [Mebendazole],> 100
18,CC1(C)S[C@@H]2[C@H](NC(=O)[C@H](NC(=O)N3CCNC3=O)c3ccccc3)C(=O)N2[C@H]1C(=O)O [Azlocillin sodium salt],11.2
19,Cc1cc2c(cc1S(N)(=O)=O)S(=O)(=O)CCC2 [Meticrane],74.2
20,"CC(C)OC(=O)[C@H](C)N[P@](=O)(OC[C@H]1O[C@@H](n2ccc(=O)[nH]c2=O)[C@](C)(F)[C@@H]1O)Oc1ccccc1 [Sofosbuvir (PSI-7977, GS-7977)]",-14.8
21,CN1C(C)(C)CCCC1(C)C [Pempidine],30.4

row,SMILES,inhibition of TGF-beta1-induced alpha-SMA expression [%]
1,Cc1onc(-c2c(Cl)cccc2Cl)c1C(=O)N[C@@H]1C(=O)N2[C@@H]1SC(C)(C)[C@@H]2C(=O)O [Dicloxacillin Sodium],-66.1
2,CN(C)/N=N/c1[nH]cnc1C(N)=O [Dacarbazine],-13.6
3,C[N+](C)(C)CCCCCC[N+](C)(C)C [Hexamethonium?Dibromide],-10.1
4,O=c1ccc2ccc(OCCCCN3CCN(c4cccc5sccc45)CC3)cc2[nH]1 [Brexpiprazole],39.1
5,CC1CC(OC(=O)C(O)c2ccccc2)CC(C)(C)C1 (configuration not stated) [Cyclandelate],55.5
6,O=C(O)c1cccnc1Nc1cccc(C(F)(F)F)c1 [Niflumic acid],24.5
7,Cc1oncc1C(=O)Nc1ccc(C(F)(F)F)cc1 [Leflunomide],26.4
8,COc1ccc(C(Cl)=C(c2ccc(OC)cc2)c2ccc(OC)cc2)cc1 [Chlorotrianisene],95.4
9,Cc1cn([C@H]2O[C@@H](CO)[C@H](O)[C@H]2F)c(=O)[nH]c1=O [Clevudine],-1.68
10,CCOC(=O)[C@H](CCc1ccccc1)N[C@@H](C)C(=O)N1Cc2ccccc2C[C@H]1C(=O)O [Quinapril HCl],10.8
11,CC(CCc1ccccc1)NCC(O)c1ccc(O)c(C(N)=O)c1 (configuration not stated) [Labetalol HCl],33.4
12,Fc1ccc(C(c2ccc(F)cc2)N2CCN(C/C=C/c3ccccc3)CC2)cc1 [Flunarizine 2HCl],0.799
13,CCCCC(=O)O[C@H]1CC[C@H]2[C@@H]3CCc4cc(O)ccc4[C@H]3CC[C@]12C [Estradiol valerate],22.9
14,O=C(OC[C@H]1O[C@@H](OC(=O)c2cc(O)c(O)c(OC(=O)c3cc(O)c(O)c(O)c3)c2)[C@H](OC(=O)c2cc(O)c(O)c(OC(=O)c3cc(O)c(O)c(O)c3)c2)[C@@H](OC(=O)c2cc(O)c(O)c(OC(=O)c3cc(O)c(O)c(O)c3)c2)[C@@H]1OC(=O)c1cc(O)c(O)c(OC(=O)c2cc(O)c(O)c(O)c2)c1)c1cc(O)c(O)c(OC(=O)c2cc(O)c(O)c(O)c2)c1 [Tannic acid],37.1
15,N=C(N)c1ccc(OCCCCCOc2ccc(C(=N)N)cc2)cc1 [Pentamidine isethionate],41.4
16,OCCOCCN1CCN(C2=Nc3ccccc3Sc3ccccc32)CC1 [Quetiapine Fumarate],30.6
17,CCC(=O)O[C@@H](O[P@](=O)(CCCCc1ccccc1)CC(=O)N1C[C@H](C2CCCCC2)C[C@H]1C(=O)O)C(C)C [Fosinopril Sodium],45.2
18,CC1(C)S[C@@H]2[C@H](NC(=O)[C@H](N)c3ccc(O)cc3)C(=O)N2[C@H]1C(=O)O [Amoxicillin trihydrate],-14.9
19,CC1(C)S[C@@H]2[C@H](NC(=O)[C@H](N)c3ccc(O)cc3)C(=O)N2[C@H]1C(=O)O [Amoxicillin Sodium],4.14
20,CC1(C)S[C@@H]2[C@H](NC(=O)[C@H](N)c3ccc(O)cc3)C(=O)N2[C@H]1C(=O)O [Amoxicillin],-7.2
21,Nc1nc(Cl)nc2c1ncn2[C@H]1C[C@H](O)[C@@H](CO)O1 [Cladribine],4.74

# 10 entries from above, reformatted:
row | SMILES | inhibition of TGF-beta1-induced alpha-SMA expression [%]
9 | COC(=O)C1=C(C)NC(C)=C(C(=O)OCCN2CCN(C(c3ccccc3)c3ccccc3)CC2)C1c1cccc([N+](=O)[O-])c1 (configuration not stated) [Manidipine 2HCl] | 2.14
10 | COC(=O)C1=C(C)NC(C)=C(C(=O)OCCN2CCN(C(c3ccccc3)c3ccccc3)CC2)C1c1cccc([N+](=O)[O-])c1 (configuration not stated) [Manidipine] | 32.2
11 | CC(=O)Nc1ccccc1 [Acetanilide] | 5.95
12 | C[N+]1(C)[C@@H]2C[C@@H](OC(=O)C(O)(c3cccs3)c3cccs3)C[C@H]1[C@@H]1O[C@@H]12 [Tiotropium Bromide hydrate] | 9.12
13 | CC(C(=O)O)c1ccc2c(c1)Cc1cccnc1O2 (configuration not stated) [Pranoprofen] | 22.7
14 | C[C@H]1COc2c(C3(N)CC3)c(F)cc3c(=O)c(C(=O)O)cn1c23 [Pazufloxacin mesylate] | -14.9
15 | CC(C)(C)C(=O)Oc1ccc(S(=O)(=O)Nc2ccccc2C(=O)NCC(=O)O)cc1 [Sivelestat (ONO-5046)] | 28.6
16 | CC(C)(C)C(=O)Oc1ccc(S(=O)(=O)Nc2ccccc2C(=O)NCC(=O)O)cc1 [Sivelestat sodium tetrahydrate] | 20.3
17 | COC(=O)Nc1nc2cc(C(=O)c3ccccc3)ccc2[nH]1 [Mebendazole] | > 100
18 | CC1(C)S[C@@H]2[C@H](NC(=O)[C@H](NC(=O)N3CCNC3=O)c3ccccc3)C(=O)N2[C@H]1C(=O)O [Azlocillin sodium salt] | 11.2
